The numbers were not newly measured in patent US9409146B2, “Method for treating amyloid disease” (New York University, priority 2002, dated 2016), which cites them from elsewhere.

First the molecules themselves.
B1: α 1-antichymotrypsin: Aβ binding compound, naturally occurring in plasma (protein, UniProt P01011 24-423, looked up)
Alpha-1-antichymotrypsin: HPNSPLDEENLTQENQDRGTHVDLGLASANVDFAFSLYKQLVLKAPDKNVIFSPLSISTALAFLSLGAHNTTLTEILKGLKFNLTETSEAEIHQSFQHLLRTLNQSSDELQLSMGNAMFVKEQLSLLDRFTEDAKRLYGSEAFATDFQDSAAAKKLINDYVKNGTRGKITDLIKDLDSQTMMVLVNYIFFKAKWEMPFDPQDTHQSRFYLSKKKWVMVPMMSLHHLTIPYFRDEELSCTVVELKYTGNASALFILPDQDKMEEVEAMLLPETLKRWRDSLEFREIGELYLPKFSISRDYNLNDILLQLGIEEAFTSKADLSGITGARNLAVSQVVHKAVLDVFEEGTEASAATAVKITLLSALVETRTIVRFNRPFLMIIVPTDTQNIFFMSKVTNPKQA

The conditions of the data set: naturally occurring, approximate; cited from earlier work.
“Apolipoprotein E (dimer): Aβ binding compound, naturally occurring in plasma”: the “Mean Plasma Levels” value is 54 µg/mL.
With “Apolipoprotein E (monomer): Aβ binding compound, naturally occurring in plasma”, the “Mean Plasma Levels” value was 54 µg/mL.
“Apolipoprotein J: Aβ binding compound, naturally occurring in plasma”: the “Mean Plasma Levels” value is 100 µg/mL.
For the molecule “serum amyloid P component: Aβ binding compound, naturally occurring in plasma”, the “Mean Plasma Levels” value was 34 µg/mL.
As for B1, the “Mean Plasma Levels” value is 40 µg/mL.
